# Measured values as given in PMC8085155.
# The chains behind the UniProt entries cited, without tags or fusion partners.
# UniProt P01958: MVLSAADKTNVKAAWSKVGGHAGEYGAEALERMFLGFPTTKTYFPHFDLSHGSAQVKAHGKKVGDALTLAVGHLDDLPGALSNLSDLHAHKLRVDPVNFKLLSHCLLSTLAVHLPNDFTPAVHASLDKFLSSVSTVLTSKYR
# UniProt P02062: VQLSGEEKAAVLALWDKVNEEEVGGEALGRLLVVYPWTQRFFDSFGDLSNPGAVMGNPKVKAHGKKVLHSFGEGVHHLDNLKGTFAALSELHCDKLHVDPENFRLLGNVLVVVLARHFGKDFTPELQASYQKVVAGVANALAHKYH
# Results are given in words; binding and its absence hold for the method and conditions named. In cells and extracts the contact can be indirect. These calls come from enrichment with a bait or labelling near it, and not all partners need be listed. No binding means not detected with the bait.
# T1: Theileria equi claudin-like apicomplexan microneme protein (CLAMP) (Theileria equi (Florida strain)) (UniProt L0B1Y1)
# T1 sequence: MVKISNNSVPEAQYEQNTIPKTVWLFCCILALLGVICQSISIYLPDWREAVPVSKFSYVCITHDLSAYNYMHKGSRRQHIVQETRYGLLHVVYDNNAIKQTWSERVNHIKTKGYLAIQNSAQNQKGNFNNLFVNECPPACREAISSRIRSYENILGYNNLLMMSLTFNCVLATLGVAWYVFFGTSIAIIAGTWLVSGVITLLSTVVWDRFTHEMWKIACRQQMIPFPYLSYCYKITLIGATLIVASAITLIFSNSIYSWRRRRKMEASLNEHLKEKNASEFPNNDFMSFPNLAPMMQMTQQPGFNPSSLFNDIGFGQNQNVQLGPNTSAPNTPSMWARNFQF
# Experiments:
# [1] = target: T1, Theileria equi claudin-like apicomplexan microneme protein (CLAMP) (Theileria equi (Florida strain)); assay: cross-linking + affinity purification with mass spectrometry; uninfected equine erythrocytes incubated with 5 x 10^8 T. equi merozoites for 1 h at 4 °C in 1X PBS, cross-linked with 2 mM DTSSP on ice for 2 h, quenched with 20 mM Tris; co-immunoprecipitation (Pierce Co-Immunoprecipitation kit, AminoLink resin; agarose resin as negative control), SDS-PAGE bands cut out, nano LC-MS/MS
# [2] = target: T1, Theileria equi claudin-like apicomplexan microneme protein (CLAMP) (Theileria equi (Florida strain)); assay: cross-linking + affinity purification with mass spectrometry; T. equi-infected equine erythrocytes (~11% PPE) in 1X PBS cross-linked with 2 mM DSP on ice for 2 h, quenched with 20 mM Tris; co-immunoprecipitation (Pierce Co-Immunoprecipitation kit, AminoLink resin; agarose resin as negative control), SDS-PAGE bands cut out, nano LC-MS/MS
molecule,measurement,setting,value
"Spectrin alpha, erythrocytic 1",binding,[1],binds
same,binding,[2],binds
Spectrin beta chain,binding,[1],binds
same,binding,[2],binds
Tropomyosin 3,binding,[2],binds
equine α-hemoglobin subunit (from UniProt P01958 1-142),binding,[1],no binding
same,binding,[2],no binding
equine β-hemoglobin subunit (from UniProt P02062 1-146),binding,[1],no binding
same,binding,[2],no binding
"Anion-exchange protein (protein, UniProt Q2Z1P9 1-934) MDDSQENPEEIEVIVEEDYEGPGIITSPPEAIMEEDYEGPGVSMSQPEEPVAHPTERTAADHHTITHPGTGEVYVELQELVMDGKNRELQWMEAARWVRLEENLGEDGAWGRPHLSYLNFWSLLDLQRAFAKGSVLLDLSETSLAGVAEKLLDRFIYDGLIRPQYREDLLWVLLLKHSHARDLKELDGVKPTVLTPSGGTLQPLLPEHPSLETQLFCAQGEGDTEESSPSGILEKISPDSEAALVLVGRISFLEKPVLGFVRLREAVELEATVEPSVPVRFLLVLLGPEAPHTDYTQLGRAAATLMSERVFLNEANTAQSKEELVRSLEGFLDCSLVLPPLDAPSKQALLSLVPVQRELLRRRYLPSPAKPDPSFYKSLDLGRGPGVPSGPEDPLQRTGYLFGGLVHDIKRRYPHYLSDITDALSPSVLAVVFFIYFAALSPAITFGGLLGEKTYNQIGVSELLLSTALQGIIFCLLGAQPLLVIGFSGPLLVFEEAFFSFCDRQGLEYIVGRVWIGFWLILLVVLVVAFEGSVLVRFISRYTQEIFSFLISLIFIYETFSKLVKIFQEHPLQRNYDQNVITEPKPQAPMPNTALLSLVLMAGTFSIAMMLRKFKNSTYLPGKLRRIIGDFGIPISALIMIMVDFLIQDTYTQKLSVPEGFSVSNTSFRGWLIHPLGLYTRFPTWMMFASVLPAMLVFILIFLESQITTLIISKPERRMVKGSGFHLDLLLIMGMGGLAPLFGMPWLSATTVRTITHANALTDVAKASTPGAEAQIQVREQRISGLLVALLLGLSILMGPVLRRIPLAVLFGIFLYMGVTSLSGIQFFDRILLLFKPQQYHPDVPYVTRVKTWRMHLFTITQIICVVVLWVVKTFPDSSLALPFVLILTVPLRHFLLPMIFRNLELQCLDADDAKAIFDEEEGQDEYDEATMAV",binding,[2],binds
